From article PMC4648065
Results are given in words; binding and its absence hold for the method and conditions named. Some results given as binding are weak or reduced against the parent protein; the word gives no strength.

Amino acid sequences for entries named in this document (tags omitted).
UniProt Q16531: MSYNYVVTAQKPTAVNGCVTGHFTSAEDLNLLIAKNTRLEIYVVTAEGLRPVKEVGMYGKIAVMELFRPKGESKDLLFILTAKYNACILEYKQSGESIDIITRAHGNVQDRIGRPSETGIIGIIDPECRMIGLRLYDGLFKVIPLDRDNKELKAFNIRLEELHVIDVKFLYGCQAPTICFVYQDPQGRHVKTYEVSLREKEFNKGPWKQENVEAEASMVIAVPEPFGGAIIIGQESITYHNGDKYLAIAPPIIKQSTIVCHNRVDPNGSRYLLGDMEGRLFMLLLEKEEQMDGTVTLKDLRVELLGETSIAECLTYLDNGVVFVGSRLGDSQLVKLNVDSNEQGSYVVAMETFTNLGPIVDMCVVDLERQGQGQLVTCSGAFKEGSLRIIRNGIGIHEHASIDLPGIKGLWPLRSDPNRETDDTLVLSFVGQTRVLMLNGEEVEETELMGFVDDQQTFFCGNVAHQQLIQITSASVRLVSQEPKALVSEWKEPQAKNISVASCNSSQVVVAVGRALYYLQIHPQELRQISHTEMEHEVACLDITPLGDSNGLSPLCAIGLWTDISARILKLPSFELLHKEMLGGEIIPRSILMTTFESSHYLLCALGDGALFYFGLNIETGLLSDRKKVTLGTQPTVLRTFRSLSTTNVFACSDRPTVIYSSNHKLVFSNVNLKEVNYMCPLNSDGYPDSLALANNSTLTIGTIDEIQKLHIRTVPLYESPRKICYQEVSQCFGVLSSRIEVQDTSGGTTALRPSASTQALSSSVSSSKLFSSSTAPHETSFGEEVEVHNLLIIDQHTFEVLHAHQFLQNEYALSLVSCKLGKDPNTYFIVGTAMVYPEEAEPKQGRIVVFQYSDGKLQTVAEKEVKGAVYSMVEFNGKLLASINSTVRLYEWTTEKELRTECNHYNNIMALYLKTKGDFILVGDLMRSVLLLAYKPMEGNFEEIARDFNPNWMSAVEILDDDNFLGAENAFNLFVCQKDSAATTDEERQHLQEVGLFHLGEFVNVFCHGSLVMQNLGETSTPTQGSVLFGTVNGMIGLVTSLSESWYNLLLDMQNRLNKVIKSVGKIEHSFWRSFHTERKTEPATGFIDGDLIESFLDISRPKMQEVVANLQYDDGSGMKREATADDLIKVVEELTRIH
UniProt Q92466: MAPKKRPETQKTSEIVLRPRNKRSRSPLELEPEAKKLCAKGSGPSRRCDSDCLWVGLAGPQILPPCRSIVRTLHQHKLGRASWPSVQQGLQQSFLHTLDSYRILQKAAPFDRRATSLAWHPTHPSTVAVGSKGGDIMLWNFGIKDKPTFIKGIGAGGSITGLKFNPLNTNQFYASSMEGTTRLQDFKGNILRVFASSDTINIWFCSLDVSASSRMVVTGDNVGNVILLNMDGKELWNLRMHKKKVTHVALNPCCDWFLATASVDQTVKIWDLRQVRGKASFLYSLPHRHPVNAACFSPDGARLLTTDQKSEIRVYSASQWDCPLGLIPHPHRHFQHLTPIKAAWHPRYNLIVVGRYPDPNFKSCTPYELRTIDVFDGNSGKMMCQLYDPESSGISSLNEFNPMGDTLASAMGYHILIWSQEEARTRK

Biological target: DDB1 subunit of human UV-damaged DNA-binding protein (UV-DDB) (human) (UniProt Q16531)
Assay: co-purification of a recombinant heterodimer; UV-DDB (DDB1-DDB2 heterodimer) expressed in insect cells and purified as described previously (ref. 23)

In the case of “DDB2 subunit of human UV-damaged DNA-binding protein (UV-DDB) (from UniProt Q92466 1-427)”, the binding is reported as “binds”.
